According to the supplement of paper PMC7024190:
Where a name gives a salt, the structure may show the parent alone. This is one part of the list. Single values are uncertain here, since repeats match poorly.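 Human embryonic kidney cells were transiently transfected with a plasmid bearing a Renilla luciferase gene under the HSV-TK promoter. This first-round screen tests roughly ten thousand compounds for ones that increase reporter output.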

tested on: HEK 293FT; experiment: log relative Renilla luciferase luminescence (reporter expression vs reference, reference not stated) (log (base not stated)); higher = higher recombinant reporter expression; settings: 10 µM; time after transfection 48 h

Q: For `CNCC(=O)c1ccc(O)c(O)c1` [adrenolone hydrochloride], which log is on record?
A: The log was 0.155.

Q: How did the log turn out when `CC[C@@H](c1cccc(O)c1)[C@@H](C)CN(C)C` [tapentadol hydrochloride] was run?
A: The log was 0.119.

Q: How did the log turn out when `CN(C)C(=O)Oc1cc(OC(=O)N(C)C)cc(C(O)CNC(C)(C)C)c1` (centres undefined) [bambuterol hydrochloride] was run?
A: Its log is -0.0868.

Q: How did the log turn out when `NCCc1ccc(O)cc1` [tyramine] was run?
A: The log was 0.0398.

Q: How did the log turn out when `C[N+]1(C)[C@@H]2C[C@@H](OC(=O)[C@H](CO)c3ccccc3)C[C@H]1[C@@H]1O[C@@H]12` [methscopolamine bromide] was run?
A: Its log is -0.0623.

Q: Which log does the source give for `C[C@]12CC[C@H](O)C[C@@H]1CC[C@@H]1[C@@H]2CC[C@]2(C)C(=O)CC[C@@H]12` [epiandrosterone] here?
A: The log was -0.00347.

Q: For `CCn1cc(C(=O)O)c(=O)c2cc3c(cc21)OCO3` [oxolinic acid], which log is on record?
A: The log was -0.126.

Q: How did the log turn out when `CCC1(c2ccc(N)cc2)CCC(=O)NC1=O` (centres undefined) [aminoglutethimide] was run?
A: The log was -0.0274.

Q: Which log does the source give for `CCN(C)C(=O)Oc1cccc([C@H](C)N(C)C)c1` [rivastigmine tartrate] here?
A: Its log is -0.121.

Q: How did the log turn out when `C[C@@H]1O[C@@H](O[C@H]2C[C@@H](O)[C@]3(CO)[C@H]4[C@H](O)C[C@]5(C)[C@@H](C6=CC(=O)OC6)CC[C@]5(O)[C@@H]4CC[C@]3(O)C2)[C@H](O)[C@H](O)[C@H]1O` [ouabain] was run?
A: Its log is -1.85.

Q: `[N-]=[N+]=CC(=O)OC[C@H](N)C(=O)O` [azaserine] was tested. Which log did it give?
A: Its log is 0.0586.

Q: `C[N+]1([O-])[C@@H]2CC[C@H]1C[C@@H](OC(=O)C(CO)c1ccccc1)C2` (some centres undefined) [atropine oxide] was tested. Which log did it give?
A: The log was 0.0345.

Q: Which log does the source give for `N=C1NC(=O)N2CC12` (centres undefined) [imexon] here?
A: The log was 0.18.

Q: Which log does the source give for `C[C@]12CC[C@@H]3c4ccc(OC(=O)N(CCCl)CCCl)cc4CC[C@H]3[C@@H]1CC[C@@H]2O` [estramustine] here?
A: The log was 0.11.

Q: `COc1ccc(O)c(C(C)(C)C)c1.COc1ccc(O)cc1C(C)(C)C` [butylated hydroxyanisole] was tested. Which log did it give?
A: The log was -0.0266.

Q: `CC(=O)C1CCC2C3CCC4C[C@H](O)CCC4(C)C3C[C@H](O)C12C` (stereo partly drawn) [dihydroxy (3alpha,12alpha)pregnan-20-one] was tested. Which log did it give?
A: The log was -0.039.

Q: `O=[N+]([O-])c1cc([As](=O)(O)O)ccc1O` [roxarsone] was tested. Which log did it give?
A: Its log is -0.0347.

Q: Which log does the source give for `C[C@]12C=CC(=O)C=C1CC[C@@H]1[C@@H]2CC[C@]2(C)C(=O)CC[C@@H]12` [androsta-1,4-dien-3,17-dione] here?
A: The log was 0.183.

Q: How did the log turn out when `CC[C@@]1(O)C[C@H](O[C@H]2C[C@H](N(C)C)[C@H](O)[C@H](C)O2)c2c(cc3c(c2O)C(=O)c2c(O)ccc(O)c2C3=O)[C@H]1C(=O)OC` [pyrromycin] was run?
A: The log was -0.603.
